Source: PubChem BioAssay AID652272 (Drosophila RNAi Screening Center, 2013)

- Aim: 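Genes whose knock-down decreases or increases Hedgehog reporter output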 (primary screen)
- Cell system: Drosophila clone 8 (Cl8) cells
- Reagent: long dsRNA against Drosophila genes
- Detection: 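Plate reader light from a firefly reporter under a ptc promoter fragment that responds to Hedgehog, with Renilla light as transfection reference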
- Direction: firefly Hh reporter signal: higher = more ptc reporter light; Renilla reference signal: higher = more Renilla control light
- Call rule: 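Hit when the z-score averaged over two replicates is under -2 or over +3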
- Meaning of the calls: active = hit: reporter lowered or raised; inactive = not a hit
The screen tested about 21,000 reagents; shown is a random part of those with a known target gene and a result. Over the whole deposit, 503 (2.4%) are marked active. 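Raw plate light values, not normalised; calls rest on replicate z-scores that were not deposited; hits include reporter decreases as well as increases.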 Reagents against one gene are numbered here. Names joined by + are all predicted targets of the reagent. No sequences are given here. The record does not give: the amount of reagent, the time to read-out.

Depletion of RyR (Ryanodine receptor) came out at: firefly Hh reporter signal, replicate 1 = 1.22e5; firefly Hh reporter signal, replicate 2 = 53952; Renilla reference signal, replicate 1 = 2982; Renilla reference signal, replicate 2 = 5024; inactive.
With knock-down of CG5504, the screen gave firefly Hh reporter signal, replicate 1 = 90506; firefly Hh reporter signal, replicate 2 = 49928; Renilla reference signal, replicate 1 = 3964; Renilla reference signal, replicate 2 = 1882; inactive.
Knock-down of CG11438 came out at: firefly Hh reporter signal, replicate 1 = 96537; firefly Hh reporter signal, replicate 2 = 1.16e5; Renilla reference signal, replicate 1 = 1818; Renilla reference signal, replicate 2 = 3782; inactive.
For Spn47C (Serpin 47C), the values are firefly Hh reporter signal, replicate 1 = 71971; firefly Hh reporter signal, replicate 2 = 60054; Renilla reference signal, replicate 1 = 3139; Renilla reference signal, replicate 2 = 2425; inactive.
Silencing of CG9555 came out at: firefly Hh reporter signal, replicate 1 = 83977; firefly Hh reporter signal, replicate 2 = 37936; Renilla reference signal, replicate 1 = 2160; Renilla reference signal, replicate 2 = 3760; inactive.
Silencing of Ufd1 (Ubiquitin fusion-degradation 1-like) came out at: firefly Hh reporter signal, replicate 1 = 79200; firefly Hh reporter signal, replicate 2 = 1.02e5; Renilla reference signal, replicate 1 = 4912; Renilla reference signal, replicate 2 = 4481; inactive.
Against CG43795 + SkpF, the values are firefly Hh reporter signal, replicate 1 = 76716; firefly Hh reporter signal, replicate 2 = 49056; Renilla reference signal, replicate 1 = 1896; Renilla reference signal, replicate 2 = 4108; inactive.
ThrRS (Threonyl-tRNA synthetase) scored firefly Hh reporter signal, replicate 1 = 56502; firefly Hh reporter signal, replicate 2 = 30620; Renilla reference signal, replicate 1 = 2809; Renilla reference signal, replicate 2 = 1531; inactive.
With knock-down of EMC10 (ER membrane protein complex subunit 10), the screen gave firefly Hh reporter signal, replicate 1 = 93466; firefly Hh reporter signal, replicate 2 = 89337; Renilla reference signal, replicate 1 = 3240; Renilla reference signal, replicate 2 = 2577; inactive.
Silencing of eIF3e (eukaryotic translation initiation factor 3 subunit e) came out at: firefly Hh reporter signal, replicate 1 = 1.09e5; Renilla reference signal, replicate 1 = 1392; Renilla reference signal, replicate 2 = 2456; inactive.
Xrcc2 (X-ray repair cross complementing 2) gave firefly Hh reporter signal, replicate 1 = 99344; firefly Hh reporter signal, replicate 2 = 2.60e5; Renilla reference signal, replicate 1 = 3928; Renilla reference signal, replicate 2 = 11429; inactive.

2 entries from above, reduced to “firefly Hh reporter signal, replicate 2”:
Spn47C (Serpin 47C): 60054
CG9555: 37936

Next entries follow:
Depletion of sigmar (salivary glands marred) gave: firefly Hh reporter signal, replicate 1 = 1.27e5; firefly Hh reporter signal, replicate 2 = 95540; Renilla reference signal, replicate 1 = 4707; Renilla reference signal, replicate 2 = 3332; inactive.
After knock-down of osk (oskar), the record shows firefly Hh reporter signal, replicate 1 = 1.25e5; firefly Hh reporter signal, replicate 2 = 69481; Renilla reference signal, replicate 1 = 4592; Renilla reference signal, replicate 2 = 2909; inactive.
After knock-down of CG14731, the screen gave firefly Hh reporter signal, replicate 1 = 1.60e5; firefly Hh reporter signal, replicate 2 = 1.65e5; Renilla reference signal, replicate 1 = 5205; Renilla reference signal, replicate 2 = 5110; inactive.
l(1)G0469 (lethal (1) G0469) #1 showed firefly Hh reporter signal, replicate 1 = 1.45e5; firefly Hh reporter signal, replicate 2 = 99724; Renilla reference signal, replicate 1 = 3237; Renilla reference signal, replicate 2 = 2597; inactive.
Silencing of l(1)G0469 (lethal (1) G0469) #2 resulted in: firefly Hh reporter signal, replicate 1 = 67496; firefly Hh reporter signal, replicate 2 = 1.68e5; Renilla reference signal, replicate 1 = 1925; Renilla reference signal, replicate 2 = 8056; inactive.
Silencing of Sems (Seminase) gave: firefly Hh reporter signal, replicate 1 = 1.39e5; firefly Hh reporter signal, replicate 2 = 1.45e5; Renilla reference signal, replicate 1 = 5416; Renilla reference signal, replicate 2 = 4439; inactive.
With knock-down of CG8320 + ATPCL, the record shows firefly Hh reporter signal, replicate 1 = 99915; firefly Hh reporter signal, replicate 2 = 60615; Renilla reference signal, replicate 1 = 2688; Renilla reference signal, replicate 2 = 5731; inactive.
Knock-down of PGAP5 (Post-GPI attachment to proteins 5) came out at: firefly Hh reporter signal, replicate 1 = 91127; firefly Hh reporter signal, replicate 2 = 70967; Renilla reference signal, replicate 1 = 2245; Renilla reference signal, replicate 2 = 5520; inactive.
Nop56 showed firefly Hh reporter signal, replicate 1 = 77980; firefly Hh reporter signal, replicate 2 = 67725; Renilla reference signal, replicate 1 = 3861; Renilla reference signal, replicate 2 = 3275; inactive.
With knock-down of Cpr5C (Cuticular protein 5C), the record shows firefly Hh reporter signal, replicate 1 = 1.42e5; firefly Hh reporter signal, replicate 2 = 6.72e5; firefly Hh reporter signal, replicate 3 = 3.34e5; Renilla reference signal, replicate 1 = 5309; Renilla reference signal, replicate 2 = 5234; inactive.
CG7963 gave firefly Hh reporter signal, replicate 1 = 62180; firefly Hh reporter signal, replicate 2 = 96549; Renilla reference signal, replicate 1 = 1812; Renilla reference signal, replicate 2 = 2586; inactive.
Knock-down of CG3014 gave: firefly Hh reporter signal, replicate 1 = 71403; firefly Hh reporter signal, replicate 2 = 1.11e5; Renilla reference signal, replicate 1 = 2907; Renilla reference signal, replicate 2 = 3223; inactive.
CG15651 showed firefly Hh reporter signal, replicate 1 = 64835; firefly Hh reporter signal, replicate 2 = 61521; Renilla reference signal, replicate 1 = 2352; Renilla reference signal, replicate 2 = 5079; inactive.
Knock-down of CG9886 gave: firefly Hh reporter signal, replicate 1 = 67796; firefly Hh reporter signal, replicate 2 = 90925; Renilla reference signal, replicate 1 = 3080; Renilla reference signal, replicate 2 = 3722; inactive.
dlg1 (discs large 1) #1 gave firefly Hh reporter signal, replicate 1 = 3.34e5; firefly Hh reporter signal, replicate 2 = 90877; Renilla reference signal, replicate 1 = 19275; Renilla reference signal, replicate 2 = 2260; inactive.
For dlg1 (discs large 1) #2 the deposit lists firefly Hh reporter signal, replicate 1 = 4.26e5; firefly Hh reporter signal, replicate 2 = 1.64e5; Renilla reference signal, replicate 1 = 22480; Renilla reference signal, replicate 2 = 3383; inactive.
For dlg1 (discs large 1) #3, the values are firefly Hh reporter signal, replicate 1 = 97130; firefly Hh reporter signal, replicate 2 = 3.16e5; Renilla reference signal, replicate 1 = 4203; Renilla reference signal, replicate 2 = 12272; inactive.
dlg1 (discs large 1) #4 gave firefly Hh reporter signal, replicate 1 = 1.49e5; firefly Hh reporter signal, replicate 2 = 86061; Renilla reference signal, replicate 1 = 3574; Renilla reference signal, replicate 2 = 2328; inactive.
